Data published in PMC5871692.
Results are given in words; binding and its absence hold for the method and conditions named. Some entries that bind do so weakly or less than the wild type.

Protein sequences, listed by entry. Tags and fused reporters are not part of them. Lines headed by an entry give the natural chain unless they say otherwise; changes in a name come on top.
UniProt P05648: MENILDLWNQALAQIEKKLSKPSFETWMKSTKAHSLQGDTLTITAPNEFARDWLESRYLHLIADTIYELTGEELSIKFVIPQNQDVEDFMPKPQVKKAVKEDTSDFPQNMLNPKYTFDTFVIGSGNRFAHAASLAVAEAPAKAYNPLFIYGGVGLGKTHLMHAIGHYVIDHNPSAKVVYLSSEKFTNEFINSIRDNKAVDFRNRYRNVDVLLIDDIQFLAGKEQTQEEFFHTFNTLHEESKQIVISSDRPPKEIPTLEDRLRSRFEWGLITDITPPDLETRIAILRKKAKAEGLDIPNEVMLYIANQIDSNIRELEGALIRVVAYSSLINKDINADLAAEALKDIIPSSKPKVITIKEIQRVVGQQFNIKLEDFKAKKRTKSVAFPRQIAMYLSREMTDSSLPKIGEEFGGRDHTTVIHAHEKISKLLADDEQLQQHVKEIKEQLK
UniProt P37542: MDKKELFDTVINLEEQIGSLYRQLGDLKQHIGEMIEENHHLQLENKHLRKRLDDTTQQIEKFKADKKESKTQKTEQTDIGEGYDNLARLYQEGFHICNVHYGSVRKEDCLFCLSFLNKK

How the values were obtained:
[1] = molecular target: T1, DnaN (Bacillus subtilis) (UniProt P05649); test: two-hybrid; yeast two-hybrid; fusions to the GAL4 BD (pGBDU-C1) and AD (pGAD-C1), combinational mating of PJ694 alpha and a haploid strains, growth of diploids on selective media SD-LUH and SD-LUA
T1 sequence: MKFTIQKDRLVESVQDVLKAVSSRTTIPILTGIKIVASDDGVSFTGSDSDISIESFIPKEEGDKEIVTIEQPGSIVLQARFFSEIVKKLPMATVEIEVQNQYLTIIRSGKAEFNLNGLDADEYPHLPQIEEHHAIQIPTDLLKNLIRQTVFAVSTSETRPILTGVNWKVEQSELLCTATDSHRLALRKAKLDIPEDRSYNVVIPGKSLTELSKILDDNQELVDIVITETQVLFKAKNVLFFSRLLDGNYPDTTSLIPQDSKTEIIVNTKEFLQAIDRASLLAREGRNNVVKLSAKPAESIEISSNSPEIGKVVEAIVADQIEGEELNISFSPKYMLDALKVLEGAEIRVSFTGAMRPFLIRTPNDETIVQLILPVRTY

[2] = molecular target: DnaA (Bacillus subtilis) (UniProt P05648); test: as above

binding [1] | binding [2] | Substance
binds | binds | YabA (from UniProt P37542 1-119)
binds | binds | YabA-T71A (from UniProt P37542 1-119)
binds | binds | YabA-T71D (from UniProt P37542 1-119)
